# Read-outs that look alike come from different tables or passages of the source. No constants are given. Whether binding was seen depends on the method and setting. Some results given as binding are weak or reduced against the parent protein; the word gives no strength. For part of these data: Sequences can lack the tags named with a protein.
# Protein sequences, listed by entry. Tags and fused reporters are not part of them.
# UniProt P40160: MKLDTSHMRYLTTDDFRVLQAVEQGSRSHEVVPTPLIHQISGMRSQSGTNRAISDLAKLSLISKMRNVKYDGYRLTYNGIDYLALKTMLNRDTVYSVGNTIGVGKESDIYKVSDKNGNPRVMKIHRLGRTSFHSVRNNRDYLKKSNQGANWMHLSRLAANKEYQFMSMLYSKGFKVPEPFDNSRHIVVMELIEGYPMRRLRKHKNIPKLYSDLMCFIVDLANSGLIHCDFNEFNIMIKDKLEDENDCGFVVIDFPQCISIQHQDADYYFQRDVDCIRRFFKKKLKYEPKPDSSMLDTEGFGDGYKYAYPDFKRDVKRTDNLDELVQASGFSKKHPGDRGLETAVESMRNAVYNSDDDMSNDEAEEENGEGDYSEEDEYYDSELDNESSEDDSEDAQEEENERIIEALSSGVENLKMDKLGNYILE
# T1: Enp1 in fusion with the tandem affinity purification tag (Enp1-TAP) (S. cerevisiae) (UniProt P38333)
# T1 sequence: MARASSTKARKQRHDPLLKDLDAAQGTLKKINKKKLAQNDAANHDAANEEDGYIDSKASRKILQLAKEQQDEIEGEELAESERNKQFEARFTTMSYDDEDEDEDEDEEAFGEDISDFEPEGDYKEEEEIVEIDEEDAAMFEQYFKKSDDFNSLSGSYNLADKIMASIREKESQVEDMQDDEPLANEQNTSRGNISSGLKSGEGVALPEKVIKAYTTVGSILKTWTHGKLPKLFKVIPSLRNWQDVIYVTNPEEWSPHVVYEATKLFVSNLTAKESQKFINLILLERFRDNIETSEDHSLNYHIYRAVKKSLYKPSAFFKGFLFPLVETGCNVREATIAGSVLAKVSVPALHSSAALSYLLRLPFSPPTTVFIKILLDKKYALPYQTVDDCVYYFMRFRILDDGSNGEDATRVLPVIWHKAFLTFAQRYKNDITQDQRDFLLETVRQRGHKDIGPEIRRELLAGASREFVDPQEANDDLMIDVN
# T2: Pno1 (S. cerevisiae (endogenous)) (UniProt Q99216)
# T2 sequence: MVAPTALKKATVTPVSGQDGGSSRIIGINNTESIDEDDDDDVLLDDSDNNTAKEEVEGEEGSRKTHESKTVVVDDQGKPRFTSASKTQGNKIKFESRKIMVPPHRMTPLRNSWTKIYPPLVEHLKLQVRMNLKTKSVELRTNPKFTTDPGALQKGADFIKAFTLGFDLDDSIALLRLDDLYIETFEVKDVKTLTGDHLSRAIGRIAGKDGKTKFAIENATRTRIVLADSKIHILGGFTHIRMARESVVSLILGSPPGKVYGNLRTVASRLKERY
# Legend:
# Assay in all cases: cryo-EM structure; SSU precursor particles (with 20S pre-rRNA) one-step affinity purified via Enp1-TAP from extract of control strain Y2226 after four hours in glucose medium; state Enp1TAP_A; bait rows: proteins found together in one particle, direct contact not told
# [1] = biological target: T1, Enp1 in fusion with the tandem affinity purification tag (Enp1-TAP) (S. cerevisiae)
# [2] = biological target: T2, Pno1 (S. cerevisiae (endogenous))
# [3] = biological target: T1, Enp1 in fusion with the tandem affinity purification tag (Enp1-TAP) (S. cerevisiae); remark: listed apart in the source
molecule,measurement,setting,value
Rio2 (from UniProt P40160 1-425),binding,[1],binds
"yeast endonuclease Nob1 (enzyme, UniProt Q08444 1-459) MTENQTAHVRALILDATPLITQSYTHYQNYAQSFYTTPTVFQEIKDAQARKNLEIWQSLGTLKLVHPSENSIAKVSTFAKLTGDYSVLSANDLHILALTYELEIKLNNGDWRLRKKPGDALDASKADVGTDGKQKLTEDNKKEEDSESVPKKKNKRRGGKKQKAKREAREAREAENANLELESKAEEHVEEAGSKEQICNDENIKESSDLNEVFEDADDDGDWITPENLTEAIIKDSGEDTTGSLGVEASEEDRHVALNRPENQVALATGDFAVQNVALQMNLNLMNFMSGLKIKRIRNYMLRCHACFKIFPLPKDGKPKHFCASCGGQGTLLRCAVSVDSRTGNVTPHLKSNFQWNNRGNRYSVASPLSKNSQKRYGKKGHVHSKPQENVILREDQKEYEKVIKQEEWTRRHNEKILNNWIGGGSADNYISPFAITGLKQHNVRIGKGRYVNSSKRRS",binding,[2],binds
"Tsr1 (protein, UniProt Q07381 1-788) MAGHSHRSSLKNGHKSYKSKHASKGALKRLYKGKVEKEPVGTGKPDKQVSKLQRKNKAKQLRAQRILDSIENRKLFEGKNGAAKIITIVPLVNDLDPLDILYKLLKCADDEGIMVQEVDSKRIFNVHIKKFKSNLKIIIPDMTNFLNILDCAKVADFVVFGLSGVQEVDEEFGEQIIRALELQGIASYIGVISNLSAVHEKEKFQLDVKQSLESYFKHFFPSEERVYNLEKNSDALNVLRTLCQRLPRSINWRDNRGYVVADFVDFVETSPDSGDLVIEGTVRGIGFNANRLVHIPDFGDFQLNKIEKISESSQKRKIIKEKATDSLSLELDLQTVFESNMNRDTLDEYAPEGTEDWSDYDEDFEYDGLTTARYDDHGFLPGREQTSKKAAVPKGTSDYQAKWYLDDVIDANEEEEAEQTNGKDETMMEIDDEMMVEQDNEEVAGDEEYDIEDNEGFEELSPEEEERQLREFRDMEKEDREFPDEIELEPSESAIERLKRYRGLKNLYNCDWQVDEKDPSSPAEWKRLLRIGNYKNTKNRIIKETKNEAQAIAGDRIRMFIRFPKFLLEKIQDPKQLLFAVYGLLLHEHKNAVVNFSLQRWEQYDKPVPSQEPIVVQYGVRRYTIQPLFSQGSNSPNNVHKYERFLHPDTVSVATCIAPVDFTQSPAIFFKPSPTDAKNIELIGHGTFLNADHSRILAKRAILTGHPFRFHKTVVTVRYMFFRPEDVEWFKSIPLFTKSGRSGFIKESLGTHGYFKATFDGKLSAQDVVAMSLYKRMWPMPSLPWNGM",binding,[3],binds

# From article PMC10062582
